The list shows a part of the results.

In this assay the test system is T1, CTL2-GFP (C. trachomatis L2/434/Bu, GFP-expressing).
T1 construct: L2/434/Bu, GFP-expressing
Set-up: species or system HeLa; Intracellular C. trachomatis growth in HeLa cells, bulk GFP fluorescence relative to DMSO. As to conditions: bulk GFP, single well; 28.5 h, 10 µM; inhibitor.
As to `Cc1ccc(N2C(=O)CSC23C(=O)Nc2ccccc23)cc1Br` (stereo not shown) [CBK093472], the “% of control remaining” value came out at 87.0655%.
Consider `O=C(O)c1cccc(NC(=S)NC(=O)C(c2ccccc2)c2ccccc2)c1` [CBK265053], for which the “% of control remaining” value was 111.508%.
Regarding `Cc1nnc2c(=O)n(CC(=O)N3CCN(C(C)C)CC3)c3cccnc3n12` [CBK288601], the “% of control remaining” value was determined as 107.839%.
Regarding `Cc1cccc(=O)n1CCCn1cc(C2CCOC2)nn1` (stereo not shown) [CBK307368], the “% of control remaining” value is on record as 93.8524%.
For the molecule `CCOC(=O)CN1C(=O)N2CCCN=C2c2ccc(Cl)cc21` [CBK284401], the “% of control remaining” value stood at 95.2734%.
As for `O=C(O)CNS(=O)(=O)c1cc(Br)c(Cl)s1` [CBK034455], the “% of control remaining” value turned out to be 112.431%.
For `Cc1ccc(C(=O)Nc2ncn(CC(=O)N3CCCCCC3)n2)s1` [CBK304951], the “% of control remaining” value is 111.216%.
Then `CN1CCN(CCCNC(=O)N2CCCC(CO)C2)CC1` (stereo not shown) [CBK156029], with 100%.
For the molecule `CNc1ncc(CN(C)C(=O)Cn2nc(C)c3ccccc3c2=O)cn1` [CBK307704], the “% of control remaining” value turned out to be 111.349%.
For the molecule `O=C1CCC(N2CCN(c3ncnc4ccccc34)CC2)CCN1` (stereo not shown) [CBK304393], the “% of control remaining” value was 160.761%.
Consider `Cc1nc(-c2ccc(S(=O)(=O)N3CCC(Cc4ccccc4)CC3)cc2)cs1` [CBK265494], for which the “% of control remaining” value stood at 96.4447%.
Consider `Nc1ccc(-c2nnn(CC(=O)NC3CCCCC3)n2)cc1` [CBK135771], for which the “% of control remaining” value amounted to 100%.
Turning to `O=C(CO)N1CC2(CCN(CCn3cccc3)CC2)c2ccccc21` [CBK143953], the “% of control remaining” value is 129.29%.
Then `CC(=O)N1CCc2cc(C(O)CN3CCN(c4nsc5ccccc45)CC3)ccc21` (stereo not shown) [CBK283092], with 51.917%.
Regarding `CCc1c(C(=O)N(C)Cc2cnn(C(C)C)c2)[nH]c2ccccc12` [CBK307501], the “% of control remaining” value was 104.189%.
Regarding `Cc1cc(C)cc(-c2ccc(CC3(C(=O)NCC4CCCOC4)CCOCC3)cc2)c1` (stereo not shown) [CBK286524], the “% of control remaining” value is on record as 113.45%.
`CCOC(=O)CC(=O)COc1noc2nc(C)cc(C)c12` [CBK269595]: the “% of control remaining” value came to 111.921%.
On to `O=C1COc2ccccc2C/C=C/CC2(CCN(C(=O)Cn3cccn3)CC2)C(=O)NCCN1` [CBK292003], for which the “% of control remaining” value came out at 88.9116%.
Then `CN(C)CCN(C)c1nc(-c2ccc3c(c2)OCO3)cn2ccnc12` [CBK066381], with 98.9315%.
Consider `Oc1ccc(Br)cc1CN1CCN(Cc2cccc3ccccc23)CC1` [CBK263662], for which the “% of control remaining” value was 126.976%.
Then `Cn1c(=O)n(C)c2cc(CNCc3cccnc3)ccc21` [CBK268432C], with 151.458%; and `O=C(CSc1nnc(-c2cccnc2)o1)c1ccc(Oc2ccccc2)cc1` [CBK266327], with 224.499%.

Values taken from publication PMC12040169 (PLOS Biology, 2025).
